Measured values from the supplement of paper PMC12067093, “Discovery and optimisation of a covalent ligand for TRIM25 and its application to targeted protein ubiquitination” (Chemical Science, 2025).
The other results are listed elsewhere or left out.

Protein sequences, listed by entry. Tags and fused reporters are not part of them. Lines headed by an entry give the natural chain unless they say otherwise; changes in a name come on top.
UniProt Q5VZL5: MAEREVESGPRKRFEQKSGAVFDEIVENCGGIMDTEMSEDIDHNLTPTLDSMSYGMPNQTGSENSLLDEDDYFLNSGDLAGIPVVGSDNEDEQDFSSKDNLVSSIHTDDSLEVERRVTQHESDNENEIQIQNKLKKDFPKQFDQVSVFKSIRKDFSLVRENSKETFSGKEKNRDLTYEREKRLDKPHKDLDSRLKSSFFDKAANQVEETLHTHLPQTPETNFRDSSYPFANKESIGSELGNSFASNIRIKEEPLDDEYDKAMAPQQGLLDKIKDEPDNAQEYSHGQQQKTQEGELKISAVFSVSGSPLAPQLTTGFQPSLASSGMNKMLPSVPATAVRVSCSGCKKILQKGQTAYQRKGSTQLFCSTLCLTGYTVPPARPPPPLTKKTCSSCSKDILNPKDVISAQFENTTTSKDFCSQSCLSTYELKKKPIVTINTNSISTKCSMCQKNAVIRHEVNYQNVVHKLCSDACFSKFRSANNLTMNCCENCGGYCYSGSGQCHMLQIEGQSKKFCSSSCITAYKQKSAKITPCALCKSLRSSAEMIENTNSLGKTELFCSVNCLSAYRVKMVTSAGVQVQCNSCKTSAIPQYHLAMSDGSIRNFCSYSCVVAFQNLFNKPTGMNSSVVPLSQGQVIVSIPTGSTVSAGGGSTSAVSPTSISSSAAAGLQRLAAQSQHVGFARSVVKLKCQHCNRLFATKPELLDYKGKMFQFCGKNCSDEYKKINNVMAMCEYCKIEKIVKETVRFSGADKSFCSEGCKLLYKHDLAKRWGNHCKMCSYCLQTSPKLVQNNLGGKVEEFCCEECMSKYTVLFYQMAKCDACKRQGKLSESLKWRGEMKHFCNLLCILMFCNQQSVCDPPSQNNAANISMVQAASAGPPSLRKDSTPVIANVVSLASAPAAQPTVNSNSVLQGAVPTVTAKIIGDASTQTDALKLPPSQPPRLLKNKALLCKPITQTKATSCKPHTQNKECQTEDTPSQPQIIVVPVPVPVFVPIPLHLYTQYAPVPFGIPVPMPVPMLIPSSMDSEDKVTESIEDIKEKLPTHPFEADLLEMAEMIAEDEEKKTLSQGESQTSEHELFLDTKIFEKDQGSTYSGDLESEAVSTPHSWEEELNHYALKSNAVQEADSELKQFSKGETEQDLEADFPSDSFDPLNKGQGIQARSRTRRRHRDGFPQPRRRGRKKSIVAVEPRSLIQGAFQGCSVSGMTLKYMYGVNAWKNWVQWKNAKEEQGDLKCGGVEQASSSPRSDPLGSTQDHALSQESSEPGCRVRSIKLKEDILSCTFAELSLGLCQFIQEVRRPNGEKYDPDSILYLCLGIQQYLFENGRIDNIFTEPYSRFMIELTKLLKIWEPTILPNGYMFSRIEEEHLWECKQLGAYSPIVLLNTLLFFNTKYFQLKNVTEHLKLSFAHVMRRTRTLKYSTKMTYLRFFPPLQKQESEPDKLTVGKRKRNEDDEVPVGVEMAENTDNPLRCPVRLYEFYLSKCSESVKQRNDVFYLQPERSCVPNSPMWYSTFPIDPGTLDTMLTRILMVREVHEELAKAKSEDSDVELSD
UniProt Q14202: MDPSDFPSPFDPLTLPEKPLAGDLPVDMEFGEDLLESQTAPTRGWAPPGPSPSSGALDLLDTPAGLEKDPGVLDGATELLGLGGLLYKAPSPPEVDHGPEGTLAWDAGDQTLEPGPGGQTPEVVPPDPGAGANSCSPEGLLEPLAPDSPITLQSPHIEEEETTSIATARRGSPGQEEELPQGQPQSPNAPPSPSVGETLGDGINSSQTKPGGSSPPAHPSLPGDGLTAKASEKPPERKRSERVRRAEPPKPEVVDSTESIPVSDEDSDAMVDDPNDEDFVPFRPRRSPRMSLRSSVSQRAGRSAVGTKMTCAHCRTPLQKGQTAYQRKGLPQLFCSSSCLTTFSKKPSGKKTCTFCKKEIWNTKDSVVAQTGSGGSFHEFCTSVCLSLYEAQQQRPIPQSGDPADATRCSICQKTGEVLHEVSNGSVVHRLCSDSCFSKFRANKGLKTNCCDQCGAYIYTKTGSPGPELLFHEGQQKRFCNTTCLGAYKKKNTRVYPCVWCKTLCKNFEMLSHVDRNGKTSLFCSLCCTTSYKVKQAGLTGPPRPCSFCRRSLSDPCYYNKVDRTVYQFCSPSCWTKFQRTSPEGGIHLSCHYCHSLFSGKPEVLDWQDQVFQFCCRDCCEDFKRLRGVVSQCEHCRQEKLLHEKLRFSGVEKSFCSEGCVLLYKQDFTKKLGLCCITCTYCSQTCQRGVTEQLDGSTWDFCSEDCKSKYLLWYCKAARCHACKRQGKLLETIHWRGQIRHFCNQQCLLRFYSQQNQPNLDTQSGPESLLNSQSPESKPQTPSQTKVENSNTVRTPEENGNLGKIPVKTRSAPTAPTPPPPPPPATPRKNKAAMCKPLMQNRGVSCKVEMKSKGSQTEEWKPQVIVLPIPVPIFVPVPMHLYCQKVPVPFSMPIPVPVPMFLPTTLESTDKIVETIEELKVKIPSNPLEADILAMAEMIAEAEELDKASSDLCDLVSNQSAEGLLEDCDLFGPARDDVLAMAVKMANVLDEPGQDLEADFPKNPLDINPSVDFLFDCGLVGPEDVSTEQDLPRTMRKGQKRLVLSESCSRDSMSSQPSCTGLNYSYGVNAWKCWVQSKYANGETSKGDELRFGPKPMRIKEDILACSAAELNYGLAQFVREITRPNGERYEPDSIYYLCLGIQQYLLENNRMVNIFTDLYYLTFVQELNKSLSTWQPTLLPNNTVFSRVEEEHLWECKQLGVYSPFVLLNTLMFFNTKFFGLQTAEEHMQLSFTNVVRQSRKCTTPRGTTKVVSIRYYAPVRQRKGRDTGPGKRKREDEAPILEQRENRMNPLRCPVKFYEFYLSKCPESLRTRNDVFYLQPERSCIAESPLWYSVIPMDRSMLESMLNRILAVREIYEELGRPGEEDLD
UniProt Q92610: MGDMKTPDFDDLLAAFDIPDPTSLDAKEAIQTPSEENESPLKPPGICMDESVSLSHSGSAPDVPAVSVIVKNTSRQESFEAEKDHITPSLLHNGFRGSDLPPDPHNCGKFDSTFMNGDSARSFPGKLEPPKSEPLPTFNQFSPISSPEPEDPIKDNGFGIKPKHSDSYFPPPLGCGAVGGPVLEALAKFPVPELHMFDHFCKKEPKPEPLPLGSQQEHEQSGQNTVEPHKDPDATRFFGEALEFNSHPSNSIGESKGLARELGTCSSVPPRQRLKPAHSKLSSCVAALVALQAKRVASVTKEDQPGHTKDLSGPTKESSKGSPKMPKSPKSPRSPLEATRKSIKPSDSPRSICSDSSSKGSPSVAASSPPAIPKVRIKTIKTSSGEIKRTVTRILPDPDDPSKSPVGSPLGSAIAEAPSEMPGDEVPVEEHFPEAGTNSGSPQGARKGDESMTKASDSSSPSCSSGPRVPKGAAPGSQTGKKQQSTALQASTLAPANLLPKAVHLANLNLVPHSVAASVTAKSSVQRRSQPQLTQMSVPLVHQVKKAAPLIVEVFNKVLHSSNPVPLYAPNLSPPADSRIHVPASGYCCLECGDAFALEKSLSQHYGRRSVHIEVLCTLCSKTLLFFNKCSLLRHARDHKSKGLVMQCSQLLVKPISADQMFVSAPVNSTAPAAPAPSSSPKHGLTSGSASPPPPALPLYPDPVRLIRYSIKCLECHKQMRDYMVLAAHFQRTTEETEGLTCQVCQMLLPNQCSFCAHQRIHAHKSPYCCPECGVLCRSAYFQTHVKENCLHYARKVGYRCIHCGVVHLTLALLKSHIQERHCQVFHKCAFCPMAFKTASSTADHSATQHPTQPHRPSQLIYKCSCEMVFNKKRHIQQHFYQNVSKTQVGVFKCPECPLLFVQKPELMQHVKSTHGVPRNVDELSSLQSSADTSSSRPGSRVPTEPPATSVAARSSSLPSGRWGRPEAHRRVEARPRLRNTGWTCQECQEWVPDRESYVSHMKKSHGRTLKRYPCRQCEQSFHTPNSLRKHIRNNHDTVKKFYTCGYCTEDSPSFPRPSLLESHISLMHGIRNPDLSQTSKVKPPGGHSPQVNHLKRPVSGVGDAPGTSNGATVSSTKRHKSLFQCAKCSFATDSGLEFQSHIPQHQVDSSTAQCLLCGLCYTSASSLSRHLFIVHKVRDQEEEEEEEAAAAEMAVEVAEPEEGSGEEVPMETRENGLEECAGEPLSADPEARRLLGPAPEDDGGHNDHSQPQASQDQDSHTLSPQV
UniProt Q9H2Y7: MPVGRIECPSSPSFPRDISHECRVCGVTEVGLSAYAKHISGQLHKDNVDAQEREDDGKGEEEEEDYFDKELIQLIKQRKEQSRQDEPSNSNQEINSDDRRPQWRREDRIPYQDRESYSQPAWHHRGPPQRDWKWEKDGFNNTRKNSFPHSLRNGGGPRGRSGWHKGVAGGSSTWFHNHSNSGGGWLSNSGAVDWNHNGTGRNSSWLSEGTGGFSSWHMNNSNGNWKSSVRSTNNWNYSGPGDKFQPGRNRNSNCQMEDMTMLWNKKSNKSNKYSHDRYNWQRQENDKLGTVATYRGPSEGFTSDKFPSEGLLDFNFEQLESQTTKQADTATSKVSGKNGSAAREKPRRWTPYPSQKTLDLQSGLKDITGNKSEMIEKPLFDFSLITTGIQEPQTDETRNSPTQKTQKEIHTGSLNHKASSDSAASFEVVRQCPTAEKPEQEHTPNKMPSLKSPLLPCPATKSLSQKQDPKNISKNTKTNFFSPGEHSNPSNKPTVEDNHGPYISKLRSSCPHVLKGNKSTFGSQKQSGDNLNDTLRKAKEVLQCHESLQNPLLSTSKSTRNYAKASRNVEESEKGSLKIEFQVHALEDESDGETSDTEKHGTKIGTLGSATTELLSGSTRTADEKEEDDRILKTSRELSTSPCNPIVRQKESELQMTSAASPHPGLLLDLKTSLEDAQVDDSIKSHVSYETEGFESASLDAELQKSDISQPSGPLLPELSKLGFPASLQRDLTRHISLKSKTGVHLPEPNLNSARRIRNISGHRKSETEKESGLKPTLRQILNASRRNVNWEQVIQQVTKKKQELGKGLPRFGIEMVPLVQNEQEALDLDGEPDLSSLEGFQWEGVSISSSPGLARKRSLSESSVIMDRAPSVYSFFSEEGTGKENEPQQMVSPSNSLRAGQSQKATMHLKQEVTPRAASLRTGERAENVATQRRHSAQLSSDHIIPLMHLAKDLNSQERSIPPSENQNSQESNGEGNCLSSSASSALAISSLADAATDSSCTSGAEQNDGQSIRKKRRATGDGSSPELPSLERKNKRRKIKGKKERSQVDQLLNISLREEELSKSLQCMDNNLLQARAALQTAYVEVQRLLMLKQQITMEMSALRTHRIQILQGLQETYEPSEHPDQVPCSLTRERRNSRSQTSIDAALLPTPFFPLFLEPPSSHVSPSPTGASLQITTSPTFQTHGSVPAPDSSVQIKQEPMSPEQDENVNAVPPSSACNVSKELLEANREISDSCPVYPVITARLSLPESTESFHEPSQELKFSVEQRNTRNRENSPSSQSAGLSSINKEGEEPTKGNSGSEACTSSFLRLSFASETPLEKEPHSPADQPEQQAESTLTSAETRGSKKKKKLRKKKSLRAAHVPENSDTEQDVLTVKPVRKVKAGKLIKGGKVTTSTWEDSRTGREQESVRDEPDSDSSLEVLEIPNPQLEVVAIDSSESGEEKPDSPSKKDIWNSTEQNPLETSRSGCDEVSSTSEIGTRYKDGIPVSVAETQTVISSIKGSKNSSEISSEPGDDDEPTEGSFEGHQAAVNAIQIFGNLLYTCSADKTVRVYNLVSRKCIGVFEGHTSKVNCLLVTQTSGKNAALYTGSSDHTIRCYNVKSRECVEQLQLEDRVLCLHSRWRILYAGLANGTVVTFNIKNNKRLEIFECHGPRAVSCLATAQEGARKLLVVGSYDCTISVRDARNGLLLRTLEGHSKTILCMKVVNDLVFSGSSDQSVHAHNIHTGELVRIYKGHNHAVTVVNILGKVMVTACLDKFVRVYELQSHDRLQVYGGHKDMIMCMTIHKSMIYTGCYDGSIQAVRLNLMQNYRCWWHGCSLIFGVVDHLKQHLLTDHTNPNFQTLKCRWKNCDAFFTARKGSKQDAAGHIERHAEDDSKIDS
UniProt Q9Y3S2: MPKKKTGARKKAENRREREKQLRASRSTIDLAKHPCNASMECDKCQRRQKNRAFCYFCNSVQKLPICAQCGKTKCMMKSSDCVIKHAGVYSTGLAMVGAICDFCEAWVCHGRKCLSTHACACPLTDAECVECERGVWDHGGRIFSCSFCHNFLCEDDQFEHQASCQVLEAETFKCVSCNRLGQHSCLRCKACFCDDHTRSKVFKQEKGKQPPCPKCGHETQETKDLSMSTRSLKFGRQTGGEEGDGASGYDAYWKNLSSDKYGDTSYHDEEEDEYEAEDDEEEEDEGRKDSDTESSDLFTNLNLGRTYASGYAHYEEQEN
UniProt Q6FIF0: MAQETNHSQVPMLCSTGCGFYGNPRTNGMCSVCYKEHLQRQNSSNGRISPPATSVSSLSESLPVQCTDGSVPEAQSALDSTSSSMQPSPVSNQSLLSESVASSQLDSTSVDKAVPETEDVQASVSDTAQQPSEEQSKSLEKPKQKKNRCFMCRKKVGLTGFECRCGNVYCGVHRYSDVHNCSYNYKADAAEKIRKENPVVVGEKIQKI

compound: CC1Cc2ccccc2N1C(=O)C1CCCN(C1)C(=O)CCl (mixture of isomers) [TRIM25 ligand 11 (diastereomer mixture)]; assay: probe-labelled cysteine peptide fold change vs DMSO (competition) (log2 fold change); higher = less target engagement (more negative = stronger competition); conditions: 10 µM; THP-1; incubation time: 4 h
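Note: competitive chemoproteomic profiling in live THP-1 cells with an iodoacetamide desthiobiotin (IA-DTB) probe, comparing probe-labelled peptide intensities in compound-treated cells against DMSO-treated controls.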

Row | Target | probe-labelled cysteine peptide fold change
1 | ZNF512B_Q96KM6_6_TDPFCVGGR (UniProt Q96KM6) | -0.0302
2 | ZMYM4_Q5VZL5_948_ALLCKPITQTK (UniProt Q5VZL5) | -0.151
3 | ZMYM3_Q14202_311+314_MTCAHCR (UniProt Q14202) | -0.216
4 | ZMYM3_Q14202_484_FCNTTCLGAYK (UniProt Q14202) | -0.00156
5 | ZFYVE1_Q9HBF4_217_TSPTQESCTVGVWAAYDPVHK (UniProt Q9HBF4) | 0.285
6 | ZNF189_O75820_610_TQETHECDACGEAFNCR (UniProt O75820) | 0.0654
7 | ZNF280D_Q6N043_827_NIVSCDSNIGADKVEK (UniProt Q6N043) | -0.321
8 | ZNF687_Q8N1G0_860_CPSCPLLFAQK (UniProt Q8N1G0) | -0.0564
9 | ZNF592_Q92610_592_IHVPASGYCCLECGDAFALEK (UniProt Q92610) | -0.227
10 | ZNF106_Q9H2Y7_1653_RLEIFECHGPR (UniProt Q9H2Y7) | 0.0782
11 | ZNF330_Q9Y3S2_120+122_CLSTHACACPLTDAECVECER (UniProt Q9Y3S2) | 0.358
12 | ZFAND6_Q6FIF0_181_YSDVHNCSYNYK (UniProt Q6FIF0) | -0.0968
13 | ZNF638_Q14966_1947_AMTNHCK (UniProt Q14966) | -0.149
14 | ZFYVE16_Q7Z3T8_292_EEVDVAVITAAECLK (UniProt Q7Z3T8) | 0.00496
15 | ZMYND11_Q15326_73_DGLIVETLTVGCK (UniProt Q15326) | 0.000505
16 | ZMIZ1_Q9ULJ6_763_HVQCFDLESYLQLNCER (UniProt Q9ULJ6) | 0.0282

Single values from above:
probe-labelled cysteine peptide fold change with ZMYM4_Q5VZL5_948_ALLCKPITQTK (UniProt Q5VZL5) reads -0.151
probe-labelled cysteine peptide fold change with ZNF106_Q9H2Y7_1653_RLEIFECHGPR (UniProt Q9H2Y7) reads 0.0782
